PubChem BioAssay AID1224830, NIAID, 2016
In all, the deposit lists about 18,000 reagents; this is an unselected part. In the full data, about 2,900 (16%) are marked active. 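Calls are made per well; low scores hint the gene aids the LPS response, high scores that it dampens it.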 Entries without a mark were called inactive. Repeated entries: four replicate wells of each siRNA pool. Reagent sequences are not shown.

Purpose: 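Regulators of TLR4 signalling towards TNF-alpha in macrophage-like cells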 (primary screen)
System: human THP-1 monocytic leukaemia cells, TNF dual-luciferase reporter clone, PMA-differentiated to macrophage-like cells
Reagent: siRNA pool against human genes, 50 nM
Time to read-out: LPS for 4 h, given about 3 days after siRNA transfection
Conditions: bacterial LPS (TLR4 ligand), 10 ng/ml
Detection: 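Ratio of firefly to renilla light, scaled to the plate median and expressed as a robust z-score per replicate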
Scale: TNF reporter robust z-score: higher = stronger TNF reporter response to LPS
Active means: 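Each well counts as active if its z-score is over 2.8 or under -1.5; controls are left without a call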

target gene | TNF reporter robust z-score
C3orf62 | 0.11
C3orf62 | 0.84
C3orf62 | 1.27
C3orf62 | 0.9
RPA2 | -0.59
RPA2 | -0.8
RPA2 | -0.71
RPA2 | 0.13
PTGIS | 1.92
PTGIS | 0.98
PTGIS | 1.35
PTGIS | 2.27
RAB11FIP5 | -0.58
RAB11FIP5 | -0.36
RAB11FIP5 | -1.04
RAB11FIP5 | -0.75
JMY | 0.5
JMY | 0.48
JMY | 0.06
JMY | 0.8
HOXC8 | 1
HOXC8 | 0.3
HOXC8 | 0.88
HOXC8 | 0.16
GPR34 | 1.07
GPR34 | 1.24
GPR34 | 1.14
GPR34 | 0.03
ATL3 | -0.66
ATL3 | -0.79
ATL3 | -0.62
ATL3 | -0.91
AHI1 | 2.09
AHI1 | 1.35
AHI1 | -0.85
AHI1 | 0.17
PRR21 | 0.02
PRR21 | -0.16
PRR21 | -0.64
PRR21 | 0.6
MAPT | 0.42
MAPT | 0.49
MAPT | 1.38
MAPT | -0.28
KRTAP5-6 | -0.49
KRTAP5-6 | 0.36
KRTAP5-6 | -0.03
KRTAP5-6 | 0.02

Continued (4 carried over from the part before).
target gene | TNF reporter robust z-score
KRTAP5-6 | -0.49
KRTAP5-6 | 0.36
KRTAP5-6 | -0.03
KRTAP5-6 | 0.02
CHRNB4 | 0.71
CHRNB4 | -0.94
CHRNB4 | -1.1
CHRNB4 | -0.63
CD40 | 2.03
CD40 | 1.35
CD40 | 1.33
CD40 | 1.89
ZNF599 | -0.63
ZNF599 | -1.49
ZNF599 | -0.64
ZNF599 | -0.66
MAGEA9B | 0.21
MAGEA9B | 0.63
MAGEA9B | 0.96
MAGEA9B | 0.36
SPEM2 | 1.74
SPEM2 | 1.11
SPEM2 | -0.79
SPEM2 | -0.63
SPEM2 | 3.15 (active)
SPEM2 | 3.31 (active)
SPEM2 | 1.02
SPEM2 | 2.18
GSR | -0.86
GSR | -0.17
GSR | -0.45
GSR | -0.78
MYO9B | -1.69 (active)
MYO9B | -0.14
MYO9B | -0.07
MYO9B | 0.05
BUD31 | -0.05
BUD31 | 0.02
BUD31 | -0.84
BUD31 | 0.25
BRINP1 | 0.6
BRINP1 | 0.35
BRINP1 | -0.5
BRINP1 | 0.46
FKTN | -0.39
FKTN | -0.2
FKTN | 0.6
FKTN | 3.06 (active)
MPP7 | 1.34
MPP7 | 2.24
MPP7 | 1.05
MPP7 | 1.19
TRAF7 | -1.18
TRAF7 | -1.19
TRAF7 | -0.7
TRAF7 | 0.32
METAP2 | 1.04
METAP2 | 1.26
METAP2 | 2.03
METAP2 | 0.56
HOXB4 | 1.93
HOXB4 | 1.53
HOXB4 | 0.83
HOXB4 | 1.26
IL1B | -1.26
IL1B | -0.22
IL1B | -0.7
IL1B | -0.8
